# Laboratory results reported in patent publication US20100137267A1, “FORMULATIONS FOR TREATMENT OF ADIPOSE TISSUE, CUTANEOUS TISSUE AND DISORDERS, AND MUSCULAR TISSUE” (priority 2006, published 2010).
# Experiments:
# [1] = system: epididymal fat pad; assay: In vivo lipolysis assay: epididymal fat pad mass after injection into the fat pad; design: species or system Sprague Dawley rats
# [2] = system: cultured human adipocytes; assay: In vitro lipolysis assay (glycerol release) in cultured adipocytes; type: cell-based; conditions: three hour incubation
# Procedure: In the in vitro lipolysis assay, glycerol was detected in cell culture media via a spectrophotometric measurement after chemical oxidation with hydrogen peroxide. Glycerol was measured over a three hour time period. Levels of lipolysis in cultured human adipocytes were tested after exposure to a beta adrenergic agonist alone, a glucocorticosteroid alone, or the combination of the two for one or more preincubation periods as described in more detail below.
# Human subcutaneous adipocytes were used in the lipolysis assay. Adipose tissue was harvested from liposuction or lipectomy and pre-adipocytes were isolated as follows. Briefly, fat tissue was minced and incubated at 37° C. in Krebs-Ringer bicarbonate buffer containing 1% bovine serum albumin and 0.1% collagenase in an oxygen-rich shaking chamber (5% CO2; 75 strokes/min) for 1 hour. The suspension was filtered through a 400 μm nylon mesh and centrifuged for 1 min at 100 g. The pre-adipocytes in the supernatant were washed twice with and then plated in 96 well plates at a density of cells/well. The pre-adipocytes were cultured in maintenance medium for seven days as they differentiated into adipocytes.
# At −21 hours before the lipolysis assay, medium was removed from each well and replaced with 75 μl of Maintenance Medium containing appropriate drug or DMSO (vehicle) concentrations (see Experimental Design section below). Each test drug or control treatment was applied to 8 wells/group (12 treatment groups per 96-well plate). […]
# The glycerol content of the Assay Buffer from each well following the incubation was used as an index for lipolysis, where an increase in glycerol indicated lipolysis. Glycerol levels were assayed colorimetrically via a commercial glycerol assay kit (Randox Laboratory, United Kingdom) and quantified by comparison to a glycerol serial dilution standard curve (3 μM-200 μM). […]
smiles,measurement,setting,value
"COc1ccc(C[C@@H](C)NC[C@H](O)c2ccc(O)c(NC=O)c2)cc1 (racemic) [Formoterol, ±N-[2-hydroxy-5-[1-hydroxy-2-[1-(4-methoxyphenyl)propan-2-ylamino]ethyl]phenyl]methanamide]",average epididymal fat loss relative to vehicle-injected control group,"[1]; formoterol 0.1 μg alone or with methylprednisolone 100 μg, right epididymal fat pad injected once per day for three days",essentially no fat loss
same,"Fat Pad Weight Δ (drug-vehicle), individual animals","[1]; three daily injections, Formoterol 1.39 μg, or Formoterol 1.39 μg + Budesonide 4 μg, contralateral pad vehicle (2% PEG), harvested 24 h after the final injection",-0.036 g
same,induction of lipolysis in cultured adipocytes (figure legend),[2],dose-dependent induction of lipolysis
same,lipolysis compared with Isoproterenol (positive control),"[2]; Isoproterenol 10^−6 M, formoterol statement holds for concentrations of 10^−6 M and above",greater than that observed for isoproterenol
same,increase in lipolysis,"[2]; relative to negative control (0.1% DMSO), Isoproterenol 10^−6 M positive control",greater than six fold
